# Measured values as given in the supplement of paper PMC9135407.
# Several values for one entry are separate records, joined by “and”; a condition that tells them apart may be missing. Equal entries are not always repeated. Structures can show the parent of a compound that is named as a salt. ± gives the standard deviation of the averaged measurements. Some of the results follow. Plates or batches differ in their baseline, so values are only roughly comparable.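 Assay uses culture-activated primary human stellate myofibroblasts; lipid droplet recovery indicates inactivation. Measured: proportion of Hoechst-counted cells over a plate-specific Bodipy cutoff, duplicate wells, DMSO and nortriptyline as per-plate negative and positive controls. A hit scores, control-normalized, above the plate's top-tenth-percentile nortriptyline wells or ranks among its three best wells. Final well concentrations not reported.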
# System: primary human hepatic stellate cells (donor 1)
# Assay: percent Bodipy-positive cells; higher = more lipid droplet accumulation
# Details: 48 h
# [1] = library stock concentration: 1 mM
# [2] = library stock concentration: 10 mM
# [3] = library stock concentration: 3.33 mM
# [4] = library stock concentration: 2 mM
# [5] = library stock concentration: 80 uM
# [6] = library stock concentration: 400 uM
structure (smiles),measurement,setting,value
C[C@@H](CN1CCC(n2c(=O)[nH]c3cc(Cl)ccc32)CC1)NC(=O)c1ccc2ccccc2c1,percent Bodipy-positive cells,[1],15.4 ± 0.69%
OC[C@@H](O)[C@@H](O)[C@H](O)[C@@H](O)CO,percent Bodipy-positive cells,[2],33.4 ± 4.7%
OC[C@@H](O)[C@@H](O)[C@H](O)[C@@H](O)CO [Sorbitol],percent Bodipy-positive cells,[3],8.56 ± 0.54%
same,percent Bodipy-positive cells,[2],16.5 ± 3.7%
CC1CCC(NC(=O)N(CCCl)N=O)CC1 (configuration not stated) [Semustine],percent Bodipy-positive cells,library stock concentration: 8.1 mM,8.5 ± 2.9%
same,percent Bodipy-positive cells,[2],34.3 ± 5.1%
CN[C@@H](C)C(=O)N[C@H](C(=O)N1CCC[C@H]1C(=O)Nc1snnc1-c1ccccc1)C1CCCCC1,percent Bodipy-positive cells,[3],20.7 ± 4.1%
same,percent Bodipy-positive cells,[2],80.2 ± 9.4%
Cc1nc(N=Nc2ccc(C(=O)O)cc2)c(COP(=O)(O)O)c(C=O)c1O,percent Bodipy-positive cells,[2],24.9 ± 1.1%
C[C@H]1C[C@H]2[C@@H]3CCC4=CC(=O)C=C[C@]4(C)[C@@]3(Cl)[C@@H](O)C[C@]2(C)[C@@]1(O)C(=O)CO [Beclomethasone],percent Bodipy-positive cells,[2],7.09% and 24.9%
Oc1ccc(O)cc1 [Hydroquinone],percent Bodipy-positive cells,[2],43% and 57.1%
same,percent Bodipy-positive cells,library stock concentration: 18.2 mM,9.86 ± 1%
CN1CCN(c2cccc(Nc3nc4c(-c5ccc(S(C)(=O)=O)cc5)cccn4n3)c2)CC1,percent Bodipy-positive cells,[3],9.91 ± 0.28%
same,percent Bodipy-positive cells,[2],90.7 ± 1.7%
COc1cc2nc(N3CCN(C(=O)C4CCCO4)CC3)nc(N)c2cc1OC (configuration not stated) [Terazosin hydrochloride],percent Bodipy-positive cells,,10.2 ± 1.3%
same,percent Bodipy-positive cells,[2],7.97 ± 2.1%
COc1cc2nc(N3CCN(C(=O)C4CCCO4)CC3)nc(N)c2cc1OC (configuration not stated) [Terazosin],percent Bodipy-positive cells,library stock concentration: 9.6 mM,11.2 ± 3.8%
same,percent Bodipy-positive cells,[2],47.2 ± 3.2%
COc1cc2nc(N3CCN(C(=O)C4CCCO4)CC3)nc(N)c2cc1OC (configuration not stated) [Terazosin HCl],percent Bodipy-positive cells,[3],9.91 ± 5.1%
same,percent Bodipy-positive cells,library stock concentration: 5.2 mM,5.5 ± 1.3%
same,percent Bodipy-positive cells,[2],18.2 ± 9.2%
CN(C)CCC1(c2ccc(Cl)cc2)Cc2ccccc2C(=O)O1 (configuration not stated),percent Bodipy-positive cells,[2],40.5 ± 1.1%
CC(C)(O)CC[C@@H](O)[C@](C)(O)[C@H]1CC[C@@]2(O)C3=CC(=O)[C@@H]4C[C@@H](O)[C@@H](O)C[C@]4(C)[C@H]3CC[C@]12C [20-Hydroxyecdysone],percent Bodipy-positive cells,[3],5.99 ± 2.1%
same,percent Bodipy-positive cells,[2],9 ± 4.1%
Cc1cc2nc3ccc(N(C)C)cc3[s+]c2cc1N,percent Bodipy-positive cells,[2],63 ± 2.1%
CNC(=O)c1nn(C)c2c1C(C)(C)Cc1cnc(Nc3ccc(N4CCN(C)CC4)cc3)nc1-2,percent Bodipy-positive cells,[3],52 ± 8.2%
same,percent Bodipy-positive cells,[2],38.7 ± 7.6%
CC(=O)N[C@@H](CSC/C=C(\C)CCC=C(C)C)C(=O)O [N-Acetyl-S-geranyl-L-cysteine],percent Bodipy-positive cells,[1],15.5 ± 12%
CC(=O)NC(C(=O)O)C(C)(C)SN=O (configuration not stated) [Snap (s-nitroso-n-acetylpenicillamine)],percent Bodipy-positive cells,[2],40.3 ± 1.2%
CC(=O)NC(C(=O)O)C(C)(C)SN=O (configuration not stated) [S-Nitroso-N-acetylpenicillamine],percent Bodipy-positive cells,[2],33 ± 16%
Nc1ccc(S(=O)(=O)Nc2ccc(Cl)nn2)cc1 [Sulfachlorpyridazine],percent Bodipy-positive cells,library stock concentration: 7 mM,22.5 ± 10%
same,percent Bodipy-positive cells,[2],28.3 ± 4.6%
Nc1ccc(S(=O)(=O)Nc2ccc(Cl)nn2)cc1 [Sulfachloropyridazine],percent Bodipy-positive cells,,12.5 ± 1.7%
Cc1ccc(/C=N/NC(=O)c2ccccc2Oc2ccccc2)o1,percent Bodipy-positive cells,[2],7.28 ± 1.5%
Cc1c(Cl)cccc1Nc1ncccc1C(=O)O [Clonixin Lysinate],percent Bodipy-positive cells,,8.62 ± 1.2%
CCC[C@H](NC(=O)/C(C#N)=C/c1cccc(Br)n1)c1ccccc1 [Degrasyn (WP1130)],percent Bodipy-positive cells,[3],91.3 ± 3.4%
same,percent Bodipy-positive cells,[2],100%
CCOC(=O)NCCCC(=O)NCCc1ccccc1,percent Bodipy-positive cells,[3],21.9 ± 3.9%
same,percent Bodipy-positive cells,[2],25.8 ± 15%
O=c1onc2n1-c1cc(Br)ccc1OC2,percent Bodipy-positive cells,[1],17.4 ± 14%
same,percent Bodipy-positive cells,[2],66.9 ± 17%
Cc1ccc(/C(=C\CN2CCCC2)c2ccccn2)cc1 [Triprolidine hydrochloride],percent Bodipy-positive cells,,45.3 ± 1.5%
same,percent Bodipy-positive cells,library stock concentration: 6.4 mM,28.6 ± 5%
same,percent Bodipy-positive cells,[2],43.9% and 36.8%
Cc1ccc(/C(=C\CN2CCCC2)c2ccccn2)cc1 [trans-Triprolidine hydrochloride],percent Bodipy-positive cells,[2],25 ± 6.6%
Cl.Cl.NC1(c2ccc(-c3nc4ccn5c(=O)[nH]nc5c4cc3-c3ccccc3)cc2)CCC1,percent Bodipy-positive cells,[3],98.5 ± 1.1%
same,percent Bodipy-positive cells,[2],99.458 ± 0.023%
CC(C)(O/N=C(\C(=O)N[C@@H]1C(=O)N2C(C(=O)[O-])=C(C[n+]3ccccc3)CS[C@H]12)c1csc(N)n1)C(=O)O [Ceftazidime pentahydrate],percent Bodipy-positive cells,,22.04 ± 0.21%
C=C1/C(=C\C=C2/CCC[C@]3(C)[C@@H]([C@H](C)CCCC(C)(C)O)CC[C@@H]23)C[C@@H](O)C[C@@H]1O [Calcitriol],percent Bodipy-positive cells,[3],6.84 ± 0.84%
same,percent Bodipy-positive cells,library stock concentration: 4.8 mM,5.9 ± 1.4%
same,percent Bodipy-positive cells,[2],9.97 ± 0.37%
C=C1/C(=C\C=C2/CCC[C@]3(C)[C@@H]([C@H](C)CCCC(C)(C)O)CC[C@@H]23)C[C@@H](O)C[C@@H]1O,percent Bodipy-positive cells,[2],7.61 ± 2%
"C=C1/C(=C\C=C2/CCC[C@]3(C)[C@@H]([C@H](C)CCCC(C)(C)O)CC[C@@H]23)C[C@@H](O)C[C@@H]1O [1?,25-Dihydroxyvitamin D3]",percent Bodipy-positive cells,[1],7.94 ± 0.72%
CCc1c2c(nc3ccc(OC(=O)N4CCC(N5CCCCC5)CC4)cc13)-c1cc3c(c(=O)n1C2)COC(=O)[C@]3(O)CC [IRINOTECAN HCl )trihydrate)],percent Bodipy-positive cells,[2],83.3 ± 3.1%
CCc1c2c(nc3ccc(OC(=O)N4CCC(N5CCCCC5)CC4)cc13)-c1cc3c(c(=O)n1C2)COC(=O)[C@]3(O)CC [Irinotecan HCl Trihydrate],percent Bodipy-positive cells,[3],13.1 ± 3.8%
same,percent Bodipy-positive cells,[2],36.1 ± 2.4%
CCc1c2c(nc3ccc(OC(=O)N4CCC(N5CCCCC5)CC4)cc13)-c1cc3c(c(=O)n1C2)COC(=O)[C@]3(O)CC,percent Bodipy-positive cells,[2],25.4 ± 2.2%
CCc1c2c(nc3ccc(OC(=O)N4CCC(N5CCCCC5)CC4)cc13)-c1cc3c(c(=O)n1C2)COC(=O)[C@]3(O)CC [Irinotecan],percent Bodipy-positive cells,[3],28 ± 2.4%
same,percent Bodipy-positive cells,[2],32.8 ± 1.5%
CCc1c2c(nc3ccc(OC(=O)N4CCC(N5CCCCC5)CC4)cc13)-c1cc3c(c(=O)n1C2)COC(=O)[C@]3(O)CC [Irinotecan hydrochloride],percent Bodipy-positive cells,[2],60.4 ± 3.9%
Cl.C(=C(\CCN(C)C1)/C1)(/c2c(cccc2)C=C3)\c4c3cccc4 [Cyproheptadine hydrochloride],percent Bodipy-positive cells,,82.2 ± 1%
OC[C@H]1O[C@@H](OCCc2ccc(O)cc2)[C@H](O)[C@@H](O)[C@@H]1O [Salidroside],percent Bodipy-positive cells,[3],9.85 ± 3%
same,percent Bodipy-positive cells,[2],12.7 ± 3.8%
CCCCC[C@H](O)/C=C/[C@@H]1c2cc(CCCCC(=O)O)n(-c3ccccc3)c2C[C@H]1O [Piriprost (potassium salt)],percent Bodipy-positive cells,[1],17.7 ± 4.9%
CCN1CCN(Cc2ccc(NC(=O)c3ccc(C)c(/C=C/c4cnc5[nH]ccc5c4OC)c3)cc2C(F)(F)F)CC1,percent Bodipy-positive cells,[4],77.1 ± 1.6%
same,percent Bodipy-positive cells,[2],93.3 ± 3.3%
CNCCC=C1c2ccccc2CCc2ccccc21 [Nortriptyline],percent Bodipy-positive cells,[2],67.4 ± 7.1%
C[C@H]1[C@H](NC(=O)/C(=N\OC(C)(C)C(=O)O)c2csc(N)n2)C(=O)N1S(=O)(=O)O [Aztreonam],percent Bodipy-positive cells,,33.3 ± 7.3%
same,percent Bodipy-positive cells,[3],7.39 ± 0.88%
same,percent Bodipy-positive cells,library stock concentration: 4.7 mM,8.57 ± 4.9%
same,percent Bodipy-positive cells,[2],12 ± 1.5%
CCCCC[C@H](O)/C=C/[C@H]1C(=O)C[C@H](O)[C@@H]1C/C=C/CCCC(=O)O [5-trans Prostaglandin D2],percent Bodipy-positive cells,[1],11.4 ± 2%
OCc1ccc(O[C@@H]2O[C@H](CO)[C@@H](O)[C@H](O)[C@H]2O)cc1 [Gastrodin],percent Bodipy-positive cells,[3],8.08 ± 0.36%
same,percent Bodipy-positive cells,[2],14.8 ± 7.8%
N#CC(c1ccnc(NCCc2cccnc2)n1)c1nc2ccccc2s1 (configuration not stated) [JNK Inhibitor V],percent Bodipy-positive cells,[3],47.7 ± 14%
N#CC(c1ccnc(NCCc2cccnc2)n1)c1nc2ccccc2s1 (configuration not stated),percent Bodipy-positive cells,[5],11.5 ± 0.51%
same,percent Bodipy-positive cells,[6],14 ± 0.93%
same,percent Bodipy-positive cells,[4],17.1 ± 1.3%
same,percent Bodipy-positive cells,[2],63.7 ± 0.69%
O=C(NC(NC(=S)Nc1ccc(F)c([N+](=O)[O-])c1)C(Cl)(Cl)Cl)C(c1ccccc1)c1ccccc1 (configuration not stated),percent Bodipy-positive cells,[5],8.75 ± 1.7%
same,percent Bodipy-positive cells,[6],11.7 ± 0.81%
same,percent Bodipy-positive cells,[4],8.51 ± 1.4%
same,percent Bodipy-positive cells,[3],27.3 ± 4.1%
Cn1cc(C2=C(c3ccc(Cl)cc3Cl)C(=O)NC2=O)c2ccccc21,percent Bodipy-positive cells,[5],26 ± 10%
same,percent Bodipy-positive cells,[4],36.2 ± 4.9%
same,percent Bodipy-positive cells,[3],53.1 ± 12%
same,percent Bodipy-positive cells,[2],55.3 ± 1.5%
CN(N=O)C(=O)N[C@@H](C=O)[C@@H](O)[C@H](O)[C@H](O)CO [Streptozotocin],percent Bodipy-positive cells,,7.03 ± 2.7%
CN(N=O)C(=O)N[C@@H](C=O)[C@@H](O)[C@H](O)[C@H](O)CO [Streptozocin],percent Bodipy-positive cells,[2],9.61 ± 2.1%
CC#CCOC(=O)c1c(C)nc2sc3c(c2c1N)CCC(O)C3 (configuration not stated),percent Bodipy-positive cells,[2],90.7 ± 3.2%
CCCCCCCCCCCCCCCC(=O)N[C@H]1CCOC1=O [N-hexadecanoyl-L-Homoserine lactone],percent Bodipy-positive cells,[1],15.9 ± 12%
Cc1ccc(C(=O)Nc2ccc(S(=O)(=O)O)c3cc(S(=O)(=O)O)cc(S(=O)(=O)O)c23)cc1NC(=O)c1cccc(NC(=O)Nc2cccc(C(=O)Nc3cc(C(=O)Nc4ccc(S(=O)(=O)O)c5cc(S(=O)(=O)O)cc(S(=O)(=O)O)c45)ccc3C)c2)c1 [Suramin hexasodium salt],percent Bodipy-positive cells,[2],2.32 ± 1.7%
Cc1ccc(C(=O)Nc2ccc(S(=O)(=O)O)c3cc(S(=O)(=O)O)cc(S(=O)(=O)O)c23)cc1NC(=O)c1cccc(NC(=O)Nc2cccc(C(=O)Nc3cc(C(=O)Nc4ccc(S(=O)(=O)O)c5cc(S(=O)(=O)O)cc(S(=O)(=O)O)c45)ccc3C)c2)c1 [Suramin sodium salt],percent Bodipy-positive cells,[2],6.91 ± 4.8%
Cc1ccc(C(=O)Nc2ccc(S(=O)(=O)O)c3cc(S(=O)(=O)O)cc(S(=O)(=O)O)c23)cc1NC(=O)c1cccc(NC(=O)Nc2cccc(C(=O)Nc3cc(C(=O)Nc4ccc(S(=O)(=O)O)c5cc(S(=O)(=O)O)cc(S(=O)(=O)O)c45)ccc3C)c2)c1 [Suramin],percent Bodipy-positive cells,library stock concentration: 1.4 mM,4.3 ± 1.5%
CCC(=O)[C@@]1(C)[C@H](C)C[C@H]2[C@@H]3CCC4=CC(=O)C=C[C@]4(C)[C@H]3[C@@H](O)C[C@@]21C [Rimexolone],percent Bodipy-positive cells,,7.87 ± 1.8%
CC(=O)Nc1ccc(S(=O)(=O)Nc2ccc([N+](=O)[O-])cc2)cc1 [Sulfanitran],percent Bodipy-positive cells,library stock concentration: 6 mM,8.69 ± 1.2%
same,percent Bodipy-positive cells,[2],25 ± 1.1%
CCc1cc(C(N)=S)ccn1 [Ethionamide],percent Bodipy-positive cells,,25.5 ± 11%
same,percent Bodipy-positive cells,[3],10.4 ± 1.1%
same,percent Bodipy-positive cells,[2],12.4% and 10.4%
same,percent Bodipy-positive cells,library stock concentration: 12 mM,4.6 ± 0.13%
CCc1cc(C(N)=S)ccn1,percent Bodipy-positive cells,[2],25.1 ± 2.1%
"O=C1C=CC(=O)c2c1ccc1c2ccc2ccccc21 [Chrysene-1,4-quinone]",percent Bodipy-positive cells,,87.9 ± 2.9%
CN(Cc1ccccc1)C(=O)[C@H](Cc1ccc2ccccc2c1)NC(=O)[C@@H]1C[C@@H](O)CN1C(=O)c1cn(C)c2ccccc12,percent Bodipy-positive cells,[2],10.1 ± 1.4%
NC(=O)c1ncn([C@@H]2O[C@H](CO)[C@@H](O)[C@H]2O)c1O [Mizoribine],percent Bodipy-positive cells,[2],31.2 ± 8.3%
Cc1cn([C@@H]2C[C@@H](O)[C@H](CO)O2)c(=O)[nH]c1=O [Telbivudine],percent Bodipy-positive cells,[3],8.09 ± 2.1%
same,percent Bodipy-positive cells,[2],14.4 ± 1.7%
